# From article PMC12166406
# No constants are given. Whether binding was seen depends on the method and setting. Some entries that bind do so weakly or less than the wild type.
# T1: phosphoribosyl pyrophosphate synthetase 1 (PRPS1) (human (endogenous in CA46, DG-75, P493-6)) (UniProt P60891)
# T1 sequence: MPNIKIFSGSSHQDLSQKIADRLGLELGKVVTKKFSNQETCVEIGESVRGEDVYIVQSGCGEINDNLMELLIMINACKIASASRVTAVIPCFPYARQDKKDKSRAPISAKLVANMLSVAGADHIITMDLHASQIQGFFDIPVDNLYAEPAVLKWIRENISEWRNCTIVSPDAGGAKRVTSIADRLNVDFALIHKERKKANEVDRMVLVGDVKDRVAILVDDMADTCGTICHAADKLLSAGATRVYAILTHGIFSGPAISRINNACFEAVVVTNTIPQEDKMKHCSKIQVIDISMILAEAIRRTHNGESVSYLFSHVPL
# T2: phosphoribosyl pyrophosphate synthetase 2 (PRPS2) (human (endogenous in CA46, DG-75, P493-6)) (UniProt P11908)
# T2 sequence: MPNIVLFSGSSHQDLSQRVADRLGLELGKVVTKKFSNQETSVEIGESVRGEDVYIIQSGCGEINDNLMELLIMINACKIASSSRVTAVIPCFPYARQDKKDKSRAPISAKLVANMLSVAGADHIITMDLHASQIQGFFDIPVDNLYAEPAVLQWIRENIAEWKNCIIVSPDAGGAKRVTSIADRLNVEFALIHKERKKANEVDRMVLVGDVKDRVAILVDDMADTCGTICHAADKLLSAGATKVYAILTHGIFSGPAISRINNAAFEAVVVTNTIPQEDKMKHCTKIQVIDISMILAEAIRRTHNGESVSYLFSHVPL
# Tests used:
# [1] = target: T1, phosphoribosyl pyrophosphate synthetase 1 (PRPS1) (human (endogenous in CA46, DG-75, P493-6)); test: SEC; CA46 and DG-75 cell lysates (~200 ug; 50 mM Tris-Cl pH 7.5, 200 mM NaCl, 1 % digitonin, 1 mM TCEP, 1 mM MgCl2, benzonase) on Superose 6 Increase 3.2/300, mobile phase 0.1 M Na2HPO4, 0.1 M NaCl, pH 7.5; fractions analysed by Western blot against internal size standards
# [2] = target: T1, phosphoribosyl pyrophosphate synthetase 1 (PRPS1) (human (endogenous in CA46, DG-75, P493-6)); test: SEC; P493-6 cell lysates, with tetracycline (MYC OFF) or without (MYC ON), on Superose 6 Increase 3.2/300, mobile phase 0.1 M Na2HPO4, 0.1 M NaCl, pH 7.5; fractions analysed by Western blot against internal size standards
# [3] = target: T2, phosphoribosyl pyrophosphate synthetase 2 (PRPS2) (human (endogenous in CA46, DG-75, P493-6)); test: SEC; CA46 and DG-75 cell lysates (~200 ug; 50 mM Tris-Cl pH 7.5, 200 mM NaCl, 1 % digitonin, 1 mM TCEP, 1 mM MgCl2, benzonase) on Superose 6 Increase 3.2/300, mobile phase 0.1 M Na2HPO4, 0.1 M NaCl, pH 7.5; fractions analysed by Western blot against internal size standards
binder,measurement,setting,value
"phosphoribosyl pyrophosphate synthetase 2 (PRPS2) (enzyme, UniProt P11908 1-318) MPNIVLFSGSSHQDLSQRVADRLGLELGKVVTKKFSNQETSVEIGESVRGEDVYIIQSGCGEINDNLMELLIMINACKIASSSRVTAVIPCFPYARQDKKDKSRAPISAKLVANMLSVAGADHIITMDLHASQIQGFFDIPVDNLYAEPAVLQWIRENIAEWKNCIIVSPDAGGAKRVTSIADRLNVEFALIHKERKKANEVDRMVLVGDVKDRVAILVDDMADTCGTICHAADKLLSAGATKVYAILTHGIFSGPAISRINNAAFEAVVVTNTIPQEDKMKHCTKIQVIDISMILAEAIRRTHNGESVSYLFSHVPL",binding,[1],binds
same,binding,[2],binds
"PRPS associated protein 2 (PRPSAP2) (protein, UniProt O60256 1-369) MFCVTPPELETKMNITKGGLVLFSANSNSSCMELSKKIAERLGVEMGKVQVYQEPNRETRVQIQESVRGKDVFIIQTVSKDVNTTIMELLIMVYACKTSCAKSIIGVIPYFPYSKQCKMRKRGSIVSKLLASMMCKAGLTHLITMDLHQKEIQGFFNIPVDNLRASPFLLQYIQEEIPDYRNAVIVAKSPASAKRAQSFAERLRLGIAVIHGEAQDAESDLVDGRHSPPMVRSVAAIHPSLEIPMLIPKEKPPITVVGDVGGRIAIIVDDIIDDVDSFLAAAETLKERGAYKIFVMATHGLLSSDAPRRIEESAIDEVVVTNTIPHEVQKLQCPKIKTVDISMILSEAIRRIHNGESMSYLFRNIGLDD",binding,[3],binds
